In brackets after ≈: the same amount, converted by molar mass.
Assays:
[1] = system: MCF7 (ATCC HTB-22) human breast cancer cell line; assay: MTT cytotoxic assay against MCF7 (96 h); assay type: cell-based; settings: read-out: IC50 (ng/mL) MCF7
Method: (§1) The Compounds A1-A5 were assayed against three cell lines: murine leukemia, P388; human breast cancer, MCF7 (ATCC HTB-22); and human colon cancer, HCT116 (ATCC CCL-247).
(§2) Human breast cancer, MCF7 (ATCC HTB-22) and human colon cancer, HCT116 (ATCC CCL-247) cell lines were all maintained in RPMI 1640 (Sigma), supplemented with 10% Foetal Bovine Serum (FBS, PAA Laboratories). Cells of 80-85% confluence were harvested and plated onto 96-flat bottom well plates for experimental use. In all experiments, cells were incubated in a CO2 incubator at 37° C. with 5% CO2 overnight prior to treatment.
(§3) Compounds were tested against MCF7 and HCT116 and incubated for 96 h before cytotoxic assay using the MTT (3-(4,5-dimethylthiazole-2-yl)-2,5-diphenyltetrazolium bromide) assay according to Mosmann (J. Immunol Meth. 65 (1983) 55-63). Plates were read using an Elisa plate reader at 520 nm. Data generated was used to plot a dose response curve. Cytotoxic activity was expressed as the mean concentration of extract required to kill 50% of the cell population (IC50).

[2] = system: HCT116 (ATCC CCL-247) human colon cancer cell line; assay: MTT cytotoxic assay against HCT116 (96 h); assay type: cell-based; settings: HCT-116, read-out: IC50 (ng/mL) HCT116
Method: as §1, §2, §3

CC/C(=C(\c1ccccc1)c1ccc(OCCN(C)C)cc1)c1ccccc1 [tamoxifen, reference compound] gave an IC50 [1] of 3860 ng/mL (≈ 10.4 µM) and an IC50 [2] of 3950 ng/mL (≈ 10.6 µM).
